Results are given in words; binding and its absence hold for the method and conditions named. In cells and extracts the contact can be indirect. Some binding calls cover weakened binding; strength is not graded here. Where a sequence is shown, tags or fusion partners need not be part of it.

The target in this experiment is T1, FLAG-Lin (Lines) (Drosophila) (UniProt Q9V4Z9).
T1 sequence: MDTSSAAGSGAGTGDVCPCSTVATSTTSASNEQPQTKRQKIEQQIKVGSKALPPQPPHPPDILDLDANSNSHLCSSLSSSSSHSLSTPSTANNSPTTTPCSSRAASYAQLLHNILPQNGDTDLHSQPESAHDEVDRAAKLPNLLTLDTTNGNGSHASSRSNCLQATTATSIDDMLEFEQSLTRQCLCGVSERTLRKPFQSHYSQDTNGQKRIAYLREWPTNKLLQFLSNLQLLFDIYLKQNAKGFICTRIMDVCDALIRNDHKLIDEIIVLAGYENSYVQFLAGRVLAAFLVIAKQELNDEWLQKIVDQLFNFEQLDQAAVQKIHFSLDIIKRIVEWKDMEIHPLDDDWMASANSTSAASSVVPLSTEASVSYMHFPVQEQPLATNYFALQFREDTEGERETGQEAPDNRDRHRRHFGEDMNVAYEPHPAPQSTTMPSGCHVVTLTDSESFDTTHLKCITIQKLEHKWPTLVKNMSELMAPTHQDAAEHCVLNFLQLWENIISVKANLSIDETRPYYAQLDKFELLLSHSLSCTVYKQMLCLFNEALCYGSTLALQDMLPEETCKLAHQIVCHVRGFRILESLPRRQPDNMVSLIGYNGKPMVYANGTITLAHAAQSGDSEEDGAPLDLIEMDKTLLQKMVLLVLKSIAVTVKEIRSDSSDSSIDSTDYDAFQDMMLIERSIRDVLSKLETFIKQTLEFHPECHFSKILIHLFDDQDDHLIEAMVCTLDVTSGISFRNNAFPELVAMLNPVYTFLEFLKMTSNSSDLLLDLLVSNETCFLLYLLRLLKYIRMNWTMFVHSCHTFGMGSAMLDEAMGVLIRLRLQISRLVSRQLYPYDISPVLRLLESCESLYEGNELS
Nature of the experiment: co-IP; S2R+ cells expressing Lin and Bowl without or with coexpressed Drm; cells treated with PS-341 (Figure 4G).

B1: Drumstick (Drm) (protein, UniProt Q9VQS6 1-81)
chain: MFAVMRIDNDDCRSDFRRKMRPKCEFICKYCQRRFTKPYNLMIHERTHKSPEITYSCEVCGKYFKQRDNLRQHRCSQCVWR
Take B1: the binding entry is on record as “binds”.
